Test results: publication PMC10693047
These are yes or no findings as the source states them, for the method shown. Binding seen in cells or lysates may run through a third protein. Some entries that bind do so weakly or less than the wild type.

Target: prion protein (human (endogenous in SH-SY5Y)) (UniProt P04156)
Assay: co-IP

exportin-5 (from UniProt Q9HAV4 1-1204)
binding: binds
